The text below walks through data of article PMC6636133.

The target of this test is p65 (co-IP with IκBα, Fig. 5b) (human), Q04206. Nature of the test: co-IP; HEK 293T cells, with or without overexpressed BMAL1; immunoprecipitation with the indicated antibodies. Conditions: remark: other sources report otherwise.

These are yes or no findings as the source states them, for the method shown. In cells and extracts the contact can be indirect. Some binding calls cover weakened binding; strength is not graded here.

B1: IκBα, P25963 1-317 (protein)
chain: MFQAAERPQEWAMEGPRDGLKKERLLDDRHDSGLDSMKDEEYEQMVKELQEIRLEPQEVPRGSEPWKQQLTEDGDSFLHLAIIHEEKALTMEVIRQVKGDLAFLNFQNNLQQTPLHLAVITNQPEIAEALLGAGCDPELRDFRGNTPLHLACEQGCLASVGVLTQSCTTPHLHSILKATNYNGHTCLHLASIHGYLGIVELLVSLGADVNAQEPCNGRTALHLAVDLQNPDLVSLLLKCGADVNRVTYQGYSPYQLTWGRPSTRIQQQLGQLTLENLQMLPESEDEESYDTESEFTEFTEDELPYDDCVFGGQRLTL
In the case of B1, the binding result is “binds”.
